# The supplement of paper PMC8728848
# This is one part of the list.
# How the values were obtained:
# Assay in all cases: glycan array binding signal (z-score within array); higher = stronger binding
# Settings in all cases: glycan notation: IUPAC condensed, linker removed
# Fuc(a1-2)Gal = target: Fuc(a1-2)Gal
# How it was run: (§1)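 Arrays were curated from the Consortium for Functional Glycomics database, 3228 in total, and kept only where the protein sequence was available. Binding is expressed as a within-array Z-score. This score was averaged across arrays of the same protein sequence at different concentrations or buffers and across linkers, and negative values can be read as non-binding.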
# Fuc(a1-2)Gal(b1-3)GalNAc = target: Fuc(a1-2)Gal(b1-3)GalNAc
# How it was run: as §1
# [1] = target: Fuc(a1-2)Gal(b1-3)GalNAc(a1-3)[Fuc(a1-2)]Gal(b1-4)Glc
# How it was run: as §1
# [2] = target: Fuc(a1-2)Gal(b1-3)GalNAc(a1-3)[Fuc(a1-2)]Gal(b1-4)GlcNAc
# How it was run: as §1
# [3] = target: Fuc(a1-2)Gal(b1-3)GalNAc(b1-3)Gal
# How it was run: as §1
# [4] = target: Fuc(a1-2)Gal(b1-3)GalNAc(b1-3)Gal(a1-4)Gal(b1-4)Glc
# How it was run: as §1
# [5] = target: Fuc(a1-2)Gal(b1-3)GalNAc(b1-4)[Neu5Ac(a2-3)]Gal(b1-4)Glc
# How it was run: as §1
# Fuc(a1-2)Gal(b1-3)GlcNAc = target: Fuc(a1-2)Gal(b1-3)GlcNAc
# How it was run: as §1
# [6] = target: Fuc(a1-2)Gal(b1-3)GlcNAc(b1-2)Man(a1-3)[Fuc(a1-2)Gal(b1-3)GlcNAc(b1-2)Man(a1-6)]Man(b1-4)GlcNAc(b1-4)GlcNAc
# How it was run: as §1
# [7] = target: Fuc(a1-2)Gal(b1-3)GlcNAc(b1-2)Man(a1-3)[Fuc(a1-2)Gal(b1-3)GlcNAc(b1-2)Man(a1-6)]Man(b1-4)GlcNAc(b1-4)[Fuc(a1-6)]GlcNAc
# How it was run: as §1
# [8] = target: Fuc(a1-2)Gal(b1-3)GlcNAc(b1-3)Gal(b1-4)Glc
# How it was run: as §1
# [9] = target: Fuc(a1-2)Gal(b1-3)GlcNAc(b1-3)GalNAc
# How it was run: as §1
# [10] = target: Fuc(a1-2)Gal(b1-3)GlcNAc(b1-3)[Fuc(a1-2)Gal(b1-3)GlcNAc(b1-6)]GalNAc
# How it was run: as §1
# [11] = target: Fuc(a1-2)Gal(b1-3)GlcNAc(b1-3)[Gal(b1-4)GlcNAc(b1-6)]Gal(b1-4)Glc
# How it was run: as §1
# [12] = target: Fuc(a1-2)Gal(b1-3)GlcNAc(b1-3)[Neu5Ac(a2-6)Gal(b1-4)GlcNAc(b1-6)]Gal(b1-4)Glc
# How it was run: as §1
# [13] = target: Fuc(a1-2)Gal(b1-3)GlcNAc6S
# How it was run: as §1
# [14] = target: Fuc(a1-2)Gal(b1-3)[Fuc(a1-4)]GlcNAc
# How it was run: as §1
# [15] = target: Fuc(a1-2)Gal(b1-3)[Fuc(a1-4)]GlcNAc(b1-2)Man(a1-3)[Fuc(a1-2)Gal(b1-3)[Fuc(a1-4)]GlcNAc(b1-2)Man(a1-3)]Man(b1-4)GlcNAc(b1-4)GlcNAc
# How it was run: as §1
# [16] = target: Fuc(a1-2)Gal(b1-3)[Fuc(a1-4)]GlcNAc(b1-2)Man(a1-3)[Fuc(a1-2)Gal(b1-3)[Fuc(a1-4)]GlcNAc(b1-2)Man(a1-6)]Man(b1-4)GlcNAc(b1-4)[Fuc(a1-6)]GlcNAc(b1-4)[Fuc(a1-6)]GlcNAc
# How it was run: as §1
# [17] = target: Fuc(a1-2)Gal(b1-3)[Fuc(a1-4)]GlcNAc(b1-3)[Fuc(a1-3)[Gal(b1-4)]GlcNAc(b1-6)]Gal(b1-4)Glc
# How it was run: as §1
# [18] = target: Fuc(a1-2)Gal(b1-3)[Fuc(a1-4)]GlcNAc(b1-3)[Gal(b1-4)GlcNAc(b1-6)]Gal(b1-4)Glc
# How it was run: as §1
# Fuc(a1-2)Gal(b1-4)Glc = target: Fuc(a1-2)Gal(b1-4)Glc
# How it was run: as §1
# Fuc(a1-2)Gal(b1-4)Glc6S = target: Fuc(a1-2)Gal(b1-4)Glc6S
# How it was run: as §1
# Fuc(a1-2)Gal(b1-4)GlcNAc = target: Fuc(a1-2)Gal(b1-4)GlcNAc
# How it was run: as §1
# [19] = target: Fuc(a1-2)Gal(b1-4)GlcNAc(b1-2)Man
# How it was run: as §1
# [20] = target: Fuc(a1-2)Gal(b1-4)GlcNAc(b1-2)Man(a1-3)[Fuc(a1-2)Gal(b1-4)GlcNAc(b1-2)Man(a1-6)]Man(b1-4)GlcNAc(b1-4)GlcNAc
# How it was run: as §1
# [21] = target: Fuc(a1-2)Gal(b1-4)GlcNAc(b1-2)Man(a1-3)[Fuc(a1-2)Gal(b1-4)GlcNAc(b1-2)Man(a1-6)]Man(b1-4)GlcNAc(b1-4)[Fuc(a1-6)]GlcNAc
# How it was run: as §1
# [22] = target: Fuc(a1-2)Gal(b1-4)GlcNAc(b1-2)[Fuc(a1-2)Gal(b1-4)GlcNAc(b1-4)]Man(a1-3)[Fuc(a1-2)Gal(b1-4)GlcNAc(b1-2)Man(a1-6)]Man(b1-4)GlcNAc(b1-4)GlcNAc
# How it was run: as §1
# [23] = target: Fuc(a1-2)Gal(b1-4)GlcNAc(b1-3)Gal(b1-4)GlcNAc
# How it was run: as §1
# [24] = target: Fuc(a1-2)Gal(b1-4)GlcNAc(b1-3)Gal(b1-4)GlcNAc(b1-2)Man(a1-3)[Fuc(a1-2)Gal(b1-4)GlcNAc(b1-3)Gal(b1-4)GlcNAc(b1-2)Man(a1-6)]Man(b1-4)GlcNAc(b1-4)GlcNAc
# How it was run: as §1
binder,measurement,setting,value
OS9 (Arabidopsis thaliana) (protein) MRGSHHHHHHGMASMTGGQQMGRDLYDDDDKSRLQIFPAHLVGTFSRNNREPKYKIEFLPEDSPFHPGDNLESMVMLDKHGNRFLCYLPKEEKATSGWTSSQQNISTVMMETQQLVKLKTPDELLQPLSEKCLFRQEGWWSYEFCHQKYVRQLHVEDENKIVQEFFLGTFDPEATAAFNQTVSDASTDASQRYHSHVYTNGTTCDLTGSPREVEVRFVCAETRAMVTSITELSTCKYALTVQCPTLCKHPLFQLEKPVSHTIHCNAIPVEEDATRNKEEQAVDESPKMIADS,glycan array binding signal (z-score),Fuc(a1-2)Gal,-0.853
same,glycan array binding signal (z-score),Fuc(a1-2)Gal(b1-3)GalNAc,-0.735
same,glycan array binding signal (z-score),[1],-0.33
same,glycan array binding signal (z-score),[2],0.117
same,glycan array binding signal (z-score),[3],2.39
same,glycan array binding signal (z-score),[4],0.252
same,glycan array binding signal (z-score),[5],-0.224
same,glycan array binding signal (z-score),Fuc(a1-2)Gal(b1-3)GlcNAc,-0.466
same,glycan array binding signal (z-score),[6],0.063
same,glycan array binding signal (z-score),[7],-1.04
same,glycan array binding signal (z-score),[8],-0.833
same,glycan array binding signal (z-score),[9],-0.864
same,glycan array binding signal (z-score),[10],1.7
same,glycan array binding signal (z-score),[11],2.66
same,glycan array binding signal (z-score),[12],-0.904
same,glycan array binding signal (z-score),[13],0.061
same,glycan array binding signal (z-score),[14],1.23
same,glycan array binding signal (z-score),[15],2.42
same,glycan array binding signal (z-score),[16],0.05
same,glycan array binding signal (z-score),[17],-0.556
same,glycan array binding signal (z-score),[18],0.86
same,glycan array binding signal (z-score),Fuc(a1-2)Gal(b1-4)Glc,-0.433
same,glycan array binding signal (z-score),Fuc(a1-2)Gal(b1-4)Glc6S,-0.313
same,glycan array binding signal (z-score),Fuc(a1-2)Gal(b1-4)GlcNAc,-0.861
same,glycan array binding signal (z-score),[19],0.609
same,glycan array binding signal (z-score),[20],0.098
same,glycan array binding signal (z-score),[21],0.078
same,glycan array binding signal (z-score),[22],-1.02
same,glycan array binding signal (z-score),[23],-0.44
same,glycan array binding signal (z-score),[24],1.19

# An excerpt of these results, with bars between the fields.
binder | measurement | setting | value
OS9 (Arabidopsis thaliana) (protein) MRGSHHHHHHGMASMTGGQQMGRDLYDDDDKSRLQIFPAHLVGTFSRNNREPKYKIEFLPEDSPFHPGDNLESMVMLDKHGNRFLCYLPKEEKATSGWTSSQQNISTVMMETQQLVKLKTPDELLQPLSEKCLFRQEGWWSYEFCHQKYVRQLHVEDENKIVQEFFLGTFDPEATAAFNQTVSDASTDASQRYHSHVYTNGTTCDLTGSPREVEVRFVCAETRAMVTSITELSTCKYALTVQCPTLCKHPLFQLEKPVSHTIHCNAIPVEEDATRNKEEQAVDESPKMIADS | glycan array binding signal (z-score) | [5] | -0.224
same | glycan array binding signal (z-score) | Fuc(a1-2)Gal(b1-3)GlcNAc | -0.466
